Laboratory results as given in patent publication US20230058961A1, “SUBSTITUTED HETEROCYCLICS WITH THERAPEUTIC ACTIVITY IN HIV” (New York Blood Center, Inc., priority 2019, published 2023).
Some of these results come from one statement about several compounds together.

Each compound was assayed on pseudovirus HIV-1 HXB2. Details: anti-HIV-1 activity, single-cycle assay, TZM-bl cells, pseudovirus HIV-1 HXB2.
Format: cell-based

Compound | IC50 [µM]
NCC(NC(=O)c1ccc(-c2ccc(Cl)cn2)[nH]1)c1ncc(CO)s1 (stereo not shown) [Compound 1, N-(2-Amino-1-(5-(hydroxymethyl)thiazol-2-yl)ethyl)-5-(5-chloropyridin-2-yl)-1H-pyrrole-2-carboxamide] | < 1
CC(C)(N)C(NC(=O)c1ccc(-c2ccc(C(F)(F)F)cn2)[nH]1)c1ncc(CO)s1 (stereo not shown) [Compound 10, N-(2-Amino-1-(5-(hydroxymethyl)thiazol-2-yl)-2-methylpropyl)-5-(5-(trifluoromethyl)pyridin-2-yl)-1H-pyrrole-2-carboxamide] | < 1
Cc1cc(-c2ccc(C(F)(F)F)cn2)[nH]c1C(=O)NC(c1ncc(CO)s1)C(C)(C)N (stereo not shown) [Compound 11, N-(2-Amino-1-(5-(hydroxymethyl)thiazol-2-yl)-2-methylpropyl)-3-methyl-5-(5-(trifluoro-methyl)pyridin-2-yl)-1H-pyrrole-2-carboxamide] | < 1
NCC(NC(=O)c1ccc(-c2ccc(F)cn2)[nH]1)c1nc(CO)cs1 (stereo not shown) [Compound 18, N-(2-Amino-1-(4-(hydroxymethyl)thiazol-2-yl)ethyl)-5-(5-fluoropyridin-2-yl)-1H-pyrrole-2-carboxamide] | > 10
NCC(NC(=O)c1ccc(-c2ccc(C(F)(F)F)cn2)[nH]1)c1nc(CO)cs1 (stereo not shown) [Compound 21, N-(2-Amino-1-(4-(hydroxymethyl)thiazol-2-yl)ethyl)-5-(5-(trifluoromethyl)pyridin-2-yl)-1H-pyrrole-2-carboxamide] | < 1
CC(C)(N)C(NC(=O)c1ccc(-c2ccc(C(F)(F)F)cn2)[nH]1)c1nc(CO)cs1 (stereo not shown) [Compound 24, N-(2-Amino-1-(4-(hydroxymethyl)thiazol-2-yl)-2-methylpropyl)-5-(5-(trifluoromethyl)pyridin-2-yl)-1H-pyrrole-2-carboxamide] | < 1
NCC(NC(=O)c1ccc(-c2ccc(C(F)(F)F)cn2)[nH]1)c1nc(CCO)cs1 (stereo not shown) [Compound 26, N-(2-Amino-1-(4-(2-hydroxyethyl)thiazol-2-yl)ethyl)-5-(5-(trifluoromethyl)pyridin-2-yl)-1H-pyrrole-2-carboxamide] | < 1
NCC(NC(=O)c1ccc(-c2ccc(C(F)(F)F)cn2)[nH]1)c1nc(CCCO)cs1 (stereo not shown) [Compound 28, N-(2-Amino-1-(4-(3-hydroxypropyl)thiazol-2-yl)ethyl)-5-(5-(trifluoromethyl)pyridin-2-yl)-1H-pyrrole-2-carboxamide] | < 1
NCC(NC(=O)c1ccc(-c2ccc(C(F)(F)F)cn2)[nH]1)c1nc(CO)c(CO)s1 (stereo not shown) [Compound 36, N-(2-Amino-1-(4,5-bis(hydroxymethyl)thiazol-2-yl)ethyl)-5-(5-(trifluoromethyl)pyridin-2-yl)-1H-pyrrole-2-carboxamide] | > 10
NCC(NC(=O)c1ccc(-c2ccc(Cl)nc2)[nH]1)c1nc(CO)cs1 (stereo not shown) [Compound 40, N-(2-Amino-1-(4-(hydroxymethyl)thiazol-2-yl)ethyl)-5-(6-chloropyridin-3-yl)-1H-pyrrole-2-carboxamide] | > 10
NCC(NC(=O)c1ccc(-c2ccc(C(F)(F)F)nc2)[nH]1)c1nc(CO)cs1 (stereo not shown) [Compound 42, N-(2-Amino-1-(4-(hydroxymethyl)thiazol-2-yl)ethyl)-5-(6-(trifluoromethyl)pyridin-3-yl)-1H-pyrrole-2-carboxamide] | > 10
NCC(NC(=O)c1ccc(-c2ccc(C(F)(F)F)nn2)[nH]1)c1nc(CO)cs1 (stereo not shown) [Compound 44, N-(2-Amino-1-(4-(hydroxymethyl)thiazol-2-yl)ethyl)-5-(6-(trifluoromethyl)pyridazin-3-yl)-1H-pyrrole-2-carboxamide] | > 10
NCC(NC(=O)c1ccc(-c2ncc(Cl)cn2)[nH]1)c1nc(CO)cs1 (stereo not shown) [Compound 46, N-(2-Amino-1-(4-(hydroxymethyl)thiazol-2-yl)ethyl)-5-(5-chloropyrimidin-2-yl)-1H-pyrrole-2-carboxamide] | > 10
COc1cc(-c2ccc(C(=O)NC(CN)c3nc(CO)cs3)[nH]2)ccn1 (stereo not shown) [Compound 48, N-(2-Amino-1-(4-(hydroxymethyl)thiazol-2-yl)ethyl)-5-(2-methoxypyridin-4-yl)-1H-pyrrole-2-carboxamide] | > 10

Same assay, conditions: comment on Table 1 data

Compound | antiviral / inhibitory activity against HIV (in words)
Cc1ccc(-c2ccc(C(=O)NC(CN)c3nc(CO)cs3)[nH]2)nc1 (stereo not shown) [Compound 19, N-(2-Amino-1-(4-(hydroxymethyl)thiazol-2-yl)ethyl)-5-(5-methylpyridin-2-yl)-1H-pyrrole-2-carboxamide] | antiviral activity considerably dropped
Cc1ccc(-c2ccc(C(=O)NC(CN)c3nc(CO)cs3)[nH]2)nc1 (stereo not shown) [Compound 20, N-(2-Amino-1-(4-(hydroxymethyl)thiazol-2-yl)ethyl)-5-(5-methylpyridin-2-yl)-1H-pyrrole-2-carboxamide] | antiviral activity considerably dropped
